Results as given in paper PMC11555707, “Histone deacetylase 7 activates 6-phosphogluconate dehydrogenase via an enzyme-independent mechanism that involves the N-terminal protein-protein interaction domain” (Biochemical Journal, 2024).
No constants are given. Whether binding was seen depends on the method and setting. In cells and extracts the contact can be indirect. Binding can be weak; no strength is given. Sequences can lack the tags named with a protein.

The chains behind the UniProt entries cited, without tags or fusion partners. Where a name states a change or a piece, a line headed by the entry shows the natural chain unless it says otherwise.
UniProt Q8C2B3: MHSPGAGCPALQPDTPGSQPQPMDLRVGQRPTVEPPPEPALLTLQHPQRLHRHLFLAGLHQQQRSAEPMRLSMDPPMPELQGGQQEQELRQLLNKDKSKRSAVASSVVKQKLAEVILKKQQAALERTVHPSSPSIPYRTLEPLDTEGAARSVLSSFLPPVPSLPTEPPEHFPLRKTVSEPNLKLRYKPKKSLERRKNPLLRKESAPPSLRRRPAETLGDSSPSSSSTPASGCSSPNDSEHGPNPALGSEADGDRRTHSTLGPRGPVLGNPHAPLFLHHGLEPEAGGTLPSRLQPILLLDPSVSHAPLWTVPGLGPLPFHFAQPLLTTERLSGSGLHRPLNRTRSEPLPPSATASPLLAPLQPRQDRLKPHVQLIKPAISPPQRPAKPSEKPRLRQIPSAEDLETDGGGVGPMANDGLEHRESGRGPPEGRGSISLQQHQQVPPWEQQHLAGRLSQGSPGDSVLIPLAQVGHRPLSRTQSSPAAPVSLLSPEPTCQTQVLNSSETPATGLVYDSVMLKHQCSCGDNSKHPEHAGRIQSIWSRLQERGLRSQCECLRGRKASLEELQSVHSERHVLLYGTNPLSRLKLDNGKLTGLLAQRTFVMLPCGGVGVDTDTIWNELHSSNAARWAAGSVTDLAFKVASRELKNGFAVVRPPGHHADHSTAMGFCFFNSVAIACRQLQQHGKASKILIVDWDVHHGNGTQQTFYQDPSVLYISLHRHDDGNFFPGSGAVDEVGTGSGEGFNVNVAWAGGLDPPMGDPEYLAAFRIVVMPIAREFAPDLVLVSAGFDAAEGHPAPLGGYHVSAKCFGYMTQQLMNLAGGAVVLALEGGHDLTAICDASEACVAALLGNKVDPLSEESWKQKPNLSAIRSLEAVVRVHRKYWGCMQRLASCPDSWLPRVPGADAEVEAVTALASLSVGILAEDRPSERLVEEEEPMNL

T1: 6-phosphogluconate dehydrogenase (6PGD), Flag-tagged (mouse) (UniProt Q9DCD0)
T1 sequence: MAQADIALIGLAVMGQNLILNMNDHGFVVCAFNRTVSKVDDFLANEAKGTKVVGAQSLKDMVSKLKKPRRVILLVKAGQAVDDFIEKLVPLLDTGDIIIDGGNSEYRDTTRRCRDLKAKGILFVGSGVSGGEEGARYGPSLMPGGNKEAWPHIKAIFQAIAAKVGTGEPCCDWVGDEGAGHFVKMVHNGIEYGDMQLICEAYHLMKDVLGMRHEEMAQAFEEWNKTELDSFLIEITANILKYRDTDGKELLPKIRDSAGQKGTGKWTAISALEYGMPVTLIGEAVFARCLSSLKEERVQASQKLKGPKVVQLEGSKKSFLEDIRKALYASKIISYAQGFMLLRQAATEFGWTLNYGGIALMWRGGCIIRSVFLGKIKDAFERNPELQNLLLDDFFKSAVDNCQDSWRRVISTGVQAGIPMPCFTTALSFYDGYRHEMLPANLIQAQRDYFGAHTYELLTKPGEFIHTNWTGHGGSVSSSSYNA

B1: 6-phosphogluconate dehydrogenase (6PGD), Flag-tagged (enzyme, mouse, UniProt Q9DCD0 1-483, looked up)
chain: T1 sequence
notes: mouse 6-phosphogluconate dehydrogenase (6PGD); A shorter ~40 kDa form (6PGD-s), also detected by anti-Flag, arises in the same cells; also called full-length 6PGD; source: HEK293, transfected (pCMV-based construct), in lysate

Tests used:
[1] = target: T1, 6-phosphogluconate dehydrogenase (6PGD), Flag-tagged (mouse); test: co-IP; HEK293 cells co-transfected 1:1 (6PGD:HDAC or SOX7) for 24 h; lysed in RIPA or mild lysis buffer; lysates immunoprecipitated with anti-Flag (6PGD as bait) and Dynabeads Protein G; immunoblot with anti-V5 and anti-Flag
[2] = target: Histone deacetylase 7 enzyme-dead mutant (H649A), V5-tagged (mouse); test: co-IP; HEK293 cells co-transfected 1:1 (6PGD:HDAC) for 24 h; lysed in RIPA or mild lysis buffer; lysates immunoprecipitated with anti-V5 (HDAC as bait) and Dynabeads Protein G; immunoblot with anti-Flag and anti-V5

binding [1]	binding [2]	Molecule
binds		Histone deacetylase 7 enzyme-dead mutant (H649A), V5-tagged (mouse)
binds		N-terminal domain of HDAC7 (amino acids 23-504), V5-tagged (from UniProt Q8C2B3) (domain or fragment)
binds		C-terminal domain of HDAC7 (amino acid residues 498-938), V5-tagged (mouse) (domain or fragment)
	binds	B1
